{
  "source": "patent US6432438B1",
  "about": "“Biodegradable vehicle and filler” (priority 1997, dated 2002)",
  "test": "Drug release from drug-loaded biodegradable vehicles at 37° C. in isotonic phosphate buffer",
  "type": "physicochemical",
  "details": "compared to oxytetracycline base, 25% polymer (i.v. 0.59) and 75% PEG 400, drug 20%",
  "experimental": "A polymer (25% w/w of 50/50 lactide-co-glycolide copolymer, inherent viscosity of 0.59) was dissolved in a minimum quantity of acetone. […] The resulting solutions were stirred to yield uniform mixtures. Acetone was evaporated from the mixtures by heating at 60-75° C. with constant stirring. The biodegradable vehicles were kept in a vacuum oven at 60-75° C. overnight to ensure complete removal of acetone. […] Oxytetracycline base (20% w/w) was added to each biodegradable vehicle and mixed thoroughly to ensure uniform distribution of the drug in the formulations. Drug release from the drug-loaded biodegradable vehicles was performed at 37° C. in isotonic phosphate buffer containing sodium sulfite as an antioxidant. […]\nA polymer (25% w/w of 50/50 lactide-co-glycolide copolymer, inherent viscosity of 0.59) was dissolved in a minimum quantity of acetone. Either pure polyethylene glycol 400, triethyl citrate (TEC) or acetyl triethyl citrate (ATEC) was added to the polymer solution. The resulting solutions were stirred to yield uniform mixtures. Acetone was evaporated from the mixtures by heating at 60-75° C. with constant stirring. The biodegradable vehicles were kept in a vacuum oven at 60-75° C. overnight to ensure complete removal of acetone. […]",
  "note": "Structures can show the parent of a compound that is named as a salt. At least one compound was matched to its structure with a doubt left.",
  "data": [
    {"smiles": "CN(C)[C@@H]1C(O)=C(C(N)=O)C(=O)[C@@]2(O)C(O)=C3C(=O)c4c(O)cccc4[C@@](C)(O)[C@H]3[C@H](O)[C@@H]12", "note": "[oxytetracycline hydrochloride]", "values": [
      {"measurement": "drug release", "value": "considerably faster"}
    ]}
  ]
}
